Reference: PMC12458685, “Thwarting Isomerization through Rigidity: A Promising HBED Derivative for the Chelation of Gallium-68” (Inorganic Chemistry, 2025)

Experiments:
[1] = Radiolabeling with generator-produced [^68Ga]Ga^3+ (RCI by radio-TLC)
[2] = set-up: method as in number not given; conditions: ref number not given, cited from earlier work
[3] = neutral pH (7), T = 90 °C, within 5 min

## O=C(O)CN(Cc1ccccc1O)[C@@H]1CCCC[C@H]1N(CC(=O)O)Cc1ccccc1O [HBCD, N,N′-di(2-hydroxybenzyl)-(1,2-cyclohexanediamine)-N,N′-diacetic acid]
[1]; neutral pH (7), RT, 15 min
  ligand concentration giving quantitative RCI: 10^–5 M
[1]; [3]
  ligand concentration giving quantitative RCI: 10^–6 M
[1]; pH 3, T = 90 °C, 5 min
  ligand concentration giving quantitative RCI: 10^–4 M
[1]; pH 3, room temperature, any of the tested conditions
  quantitative [^68Ga]Ga^3+ chelation (RCI): unable to quantitatively chelate
[1]; pH 4.5, RT, 15 min
  ligand concentration giving quantitative RCI: 10^–4 M
[1]; pH 4.5, heating (90 °C), 15 min
  ligand concentration giving quantitative RCI: 10^–6 M

## O=C(O)CN1CCN(CC(=O)O)CCN(CC(=O)O)CC1 [NOTA, 1,4,7-triazacyclononane-1,4,7-triacetic acid]
[2]; room temperature, pH 3–5.5
  time for quantitative [^68Ga]Ga^3+ binding: ~10 min

## O=C(O)CN1CCN(CC(=O)O)CCN(CC(=O)O)CCN(CC(=O)O)CC1 [DOTA, 1,4,7,10-tetraazacyclododecane-1,4,7,10-tetraacetic acid]
[2]; T = 90 °C
  incubation time required for ^68Ga incorporation: > 10 min

## O=C(O)CN(CCN(CC(=O)O)Cc1ccccc1O)Cc1ccccc1O [HBED, N,N′-di(2-hydroxybenzyl)ethylenediamine-N,N′-diacetic acid]
[1]; neutral pH (7), RT, 5 min
  ligand concentration giving quantitative RCI: 10^–6 M
[1]; [3]
  ligand concentration giving quantitative RCI: 10^–6 M
[1]; pH 3, T = 90 °C, 5 min
  ligand concentration giving quantitative RCI: 10^–7 M
[1]; pH 3, room temperature, 5 min
  ligand concentration giving quantitative RCI: 10^–4 M
[1]; pH 4.5, RT, 15 min
  ligand concentration giving quantitative RCI: 10^–5 M
[1]; pH 4.5, heating (90 °C), 5 min
  ligand concentration giving quantitative RCI: 10^–7 M
